According to PubChem BioAssay AID1347423 (Functional Genomics Laboratory (NCATS/FGL), 2020):
Among all 52,000 sequences or so, about 210 (0.4%) were called active.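 Rule for the calls: active = gene whose silencing raises cell survival under the drug, median off-target-corrected z-score across its silencing RNAs 2 or more; inactive = the rest.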 The list shows a part of the results.

Assay: Resistance to Poly (ADP-Ribose) Polymerase inhibitor: Gene Identification via Genome-wide siRNA Screen
Details: mouse BRCA2 R2336H ES cells, olaparib, CellTiter-Glo viability; hits give high values
Method in brief: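 Mouse BRCA2 R2336H ES cells were reverse-transfected with siRNA (20 nM final), treated at 48 h with 500 nM olaparib, and read by CellTiter-Glo after 72 h. Scores: MAD-based z per siRNA, median per gene, seed off-target correction.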
For GGAAGGUGAGAGCAUUAUGTT against Lrba, the z-score was inactive: -1.05.
In the case of “GUGGUGGUGGAAGACAUAATT against 2810435D12Rik”, the z-score is reported as inactive: -0.552.
With CCUGAAAAAAUUUAUCGCCTT against Rnf3 the z-score was inactive: -0.169.
In the case of “CCUUCACAAGGACAAGUUUTT against C330027G06Rik”, the z-score is reported as inactive: -1.05.
For GGACCAUGUAUUUUUCUCUTT against B3gnt5, the z-score was inactive: 1.91.
In the case of CCGUCUAUUAGUGAAGAUGTT against Pex1, the z-score is reported as inactive: 0.785.
In the case of “GCAGCUCAACUAUUCUUGATT against D1Ertd622e”, the z-score is reported as inactive: -0.993.
With “GGAAGAAAGCCAUUUGCUUTT against 4632412I24Rik” the z-score was inactive: 0.766.
In the case of GCCCAAAUGAGACUACUUUTT against Es22, the z-score is reported as inactive: -0.0913.
With UGUAAUCACCCACUUUUUCTT against Olfr386 the z-score was inactive: -0.0492.
With GGAUAAGGUAAUCUCGGUATT against Olfr710 the z-score was inactive: -0.267.
For “GGAAAUGGUGCAGAAAACCTT against F830029L24Rik”, the z-score was inactive: -0.107.
In the case of “GCAACAAAAGGCCUAAUCATT against 4930550C14Rik”, the z-score is reported as inactive: 2.11.
In the case of GCCAAGCACUGGACUAUGATT against Cdk5r2, the z-score is reported as inactive: 0.752.
With GGAAGUUGAAAAUGAAAACTT against Myom2 the z-score was inactive: 0.856.
For “GGAAGCAUGUGAGAGAAAATT against 4930565N07Rik”, the z-score was inactive: 1.12.
For GGCAAUUGCUGGGUUUCCATT against Mlp, the z-score was inactive: -1.48.
In the case of GGUCCUUAAUCAUCUGCAUTT against Galr1, the z-score is reported as inactive: -0.816.
In the case of GGACAUGUGCAUGAAGGUUTT against Cryl1, the z-score is reported as inactive: 0.145.
With GGUUGAAAAUGGAAGAGUATT against Mbnl2 the z-score was inactive: -1.85.
In the case of GCAAAACCAAGUGAAUGUGTT against Plac1, the z-score is reported as inactive: -0.146.
In the case of GGAUGUCUCAAAGUAAGAATT against Daf2, the z-score is reported as inactive: -0.885.
In the case of CCAAAGAUGCUAGUUGACCTT against Olfr1135, the z-score is reported as inactive: -1.33.
For GGCAAUUCUGAAGAAACCATT against Ogn, the z-score was inactive: -1.05.
In the case of GGACAUGAGGCUUCUGAGATT against Mcpt6, the z-score is reported as inactive: -0.95.
With “GGAAGACAAAAUGUUCUAATT against 5830482G23Rik” the z-score was inactive: -0.974.
In the case of GGAGAUACCUUAGAAGAUATT against Dlgh2, the z-score is reported as inactive: -0.396.
For GGGUACCAGAUGAUCCAAATT against Hrmt1l6, the z-score was inactive: 0.24.
With GGACAAAAGGCAGCUUAUUTT against Cnot3 the z-score was inactive: -2.29.
For GGAGAACAUUCCUUUACAGTT against Ces3, the z-score was inactive: 0.508.
With “GGAACUGGGCAUCAAGUACTT against 1600020H07Rik” the z-score was inactive: 0.69.
In the case of UGAAGUGGUGAAUCAGAGUTT against Olfr1167, the z-score is reported as inactive: -1.56.
With CGUCAACCUUUGGUACAAATT against Cabin1 the z-score was inactive: 0.309.
For GGGAACGAGAACCGAUUUGTT against Tfpi, the z-score was inactive: -0.848.
With GGUCUUCUCUCACCUUUUATT against 6.33E+19 the z-score was inactive: -1.26.
For CCAGCUUACAUGAAUAGUUTT against Cart1, the z-score was inactive: 0.953.
For CCUGCACACCAAGUAUCUGTT against Ccl6, the z-score was inactive: -0.0676.
In the case of GGUGGCUUGAGCAGAAUCUTT against BC016201, the z-score is reported as inactive: -0.0596.
In the case of “GGAGCUCUUUGCCAAGAAUTT against 4732416F18”, the z-score is reported as inactive: -2.25.
In the case of GGAACAUCAUCAACCACUATT against Olfr909, the z-score is reported as inactive: -0.371.
For GCUCUUGUUAUUUACGUCGTT against Lgi1, the z-score was inactive: 0.372.
For CGGUCUUGUGGUCUUUUACTT against Rab7, the z-score was inactive: 1.11.
In the case of GGUAGGAAGCUAGAGAAAUTT against Synj2, the z-score is reported as inactive: -0.492.
With CGGUUCCUCUAACAUGAUATT against Ppp1r2 the z-score was inactive: 0.26.
With GCUCUGAUAUUCUCAUCAATT against Olfr39 the z-score was inactive: 1.92.
With GGAUCCAAGCAUUAUAGUGTT against LOC229512 the z-score was inactive: -0.425.
For GCUGGACCGAAUUGAUUCATT against Egfl7, the z-score was inactive: 1.32.
For GCAAUGGACCAUUUUCUUUTT against Olfr812, the z-score was inactive: 0.171.
With GGCACUGAAUGACUUUGUGTT against Pik3cd the z-score was inactive: -0.3.
For GGUCCACGGUUACUAAAAATT against Klrd1, the z-score was active: 2.45.
In the case of GCUCAGAAUGCAGGUCGUATT against Abpe, the z-score is reported as inactive: -2.33.
With CCUUUUUAUCGUCUAUAUCTT against Nox1 the z-score was inactive: 0.541.
With “CGUGUUAUCUCGUAUUGUUTT against 5930422O12Rik” the z-score was inactive: -0.979.
With GGACCAAAAGAACAAUACGTT against Sncaip the z-score was inactive: 1.13.
In the case of GGUUCUCAUCAUUUCAACUTT against Sh3bgrl, the z-score is reported as inactive: 0.371.
For CGCCCAGUGCAAUUUUUUCTT against Gm592, the z-score was inactive: -0.745.
In the case of “GGUUUAUUCUUGCUACUUUTT against B830009D23Rik”, the z-score is reported as inactive: -0.205.
With GGAUGUGAAACAUGCUUUUTT against Olfr1030 the z-score was inactive: 3.21.
In the case of GGUAAUGAGAUGUCAUUUCTT against Spock1, the z-score is reported as inactive: 2.01.
With GCUCGAUGCGGAUGAAUAUTT against Lzic the z-score was inactive: -0.914.
With GGACAUGAUUAAUGAGGUGTT against Calm3 the z-score was inactive: -2.64.
With CCGAUUUCCACAUCUGUCATT against D11Wsu99e the z-score was inactive: 0.623.
With GGAUCUCAGAUUUACUGUCTT against Dedd2 the z-score was inactive: 3.94.
With “GGAAAUUCAAGUCAGUGUUTT against C630049M13” the z-score was inactive: 1.95.
With GGCCUAGAAACCUUGGUGUTT against Cyp2d10 the z-score was inactive: -1.12.
With GGAUAUUCUCUAGUCUCCATT against Pelo the z-score was inactive: -1.19.
For GGUAGAUCCAACAAAACACTT against Vps54, the z-score was inactive: 1.19.
In the case of GGACCAACAUAACCUCUACTT against BC037432, the z-score is reported as inactive: 0.0137.
For AUCAAGCAAGGGAACUCUGTT against Noto, the z-score was inactive: -1.19.
With GCAAGACAGAACGUAUUAATT against Fem1c the z-score was inactive: -0.521.
For CGUAUUAGAGAAGAUUACATT against Ckt2, the z-score was inactive: 0.297.
With GGCGAUGAGUUUGAACUGCTT against Bcl2l1 the z-score was inactive: -1.64.
For GCCUGUUGGUACCAAAUGGTT against Unc5b, the z-score was inactive: -1.08.
With GGGAAUGAGUCAGCUCUUUTT against Cd163 the z-score was inactive: -0.227.
For GGACUCAUGAAAUCAAGAATT against D6Wsu116e, the z-score was inactive: 1.26.
For CGGACUAUUUGAAAUGGCUTT against Ppt2, the z-score was inactive: 1.54.
In the case of GGAACAAGGCUUUUUCCACTT against Olfr481, the z-score is reported as inactive: -0.115.
For GCACCCUCCACCAUUGUGATT against Sqstm1, the z-score was inactive: -1.69.
For CCCAACUGUCAAAUAAUCCTT against LOC219026, the z-score was inactive: -0.257.
In the case of GCUUUAUUGCUACAAAUUGTT against Mlr2, the z-score is reported as inactive: 0.565.
For “CCUUAGGAAACGAUCUUCATT against 5930412E23Rik”, the z-score was inactive: 0.465.
With GCUUGUUUCUAUGAUUAAGTT against Phf10 the z-score was inactive: 0.263.
For GGAGAGUCAAGUCUUUUCUTT against Dnalc4, the z-score was inactive: 0.0704.
With GCCCUUAGAGAGAAUUUAUTT against Lmo2 the z-score was inactive: 1.52.
For CGAUUGUCAGGAUCCAUUUTT against Vipr1, the z-score was inactive: 0.0543.
In the case of “GGAGAGUGACAACAGCUUCTT against 1700037H04Rik”, the z-score is reported as inactive: -0.847.
For GGGAAAUUCAGUCUCAUUCTT against P2rx2, the z-score was inactive: 1.66.
In the case of GGAGGAUUAGUAAAUUCAATT against Ier2, the z-score is reported as inactive: -0.473.
For GGUACAACUCUAAGAGAAGTT against Rpl39, the z-score was inactive: -3.01.
In the case of GGAAGAUGGCACUGAGAUCTT against Itgae, the z-score is reported as inactive: 1.89.
With GGCCACUUUGGCUGAAAUUTT against Tbr1 the z-score was inactive: -2.65.
In the case of CCAUACAAGGGUGACAAUUTT against Olfr822, the z-score is reported as inactive: -1.9.
For GGAGUAACAACACAACAUUTT against Mab21l1, the z-score was inactive: -1.15.
For GCUGGAUACAUUGUGUUCUTT against Rnf44, the z-score was inactive: -0.432.
With GGACUUUGAGAAGGUCGAUTT against Khk the z-score was inactive: -1.16.
In the case of GAUAAGUGCUUUCGUGUUUTT against Klrb1b, the z-score is reported as inactive: 0.685.
In the case of “GGUUAUGAGGCUUAAUAAATT against 2810423G08Rik”, the z-score is reported as inactive: 1.54.
For GCUAACUGCACUCCGAGAUTT against Ddef1, the z-score was inactive: 0.243.
In the case of GCAACAUUUCUCGGAAAUUTT against Olfr1275, the z-score is reported as inactive: -2.21.
For GCUACUAUAUGCGUUUCUUTT against Fads2, the z-score was inactive: 1.88.
With “GGAAAAUGUUUGGACUUUGTT against 5033428A16Rik” the z-score was inactive: 0.227.
In the case of GCAAUUGUUAACUCUGGGATT against Olfr1200, the z-score is reported as inactive: 1.63.
For GGAAAGCAUUGUUUUUUUGTT against Plekhk1, the z-score was inactive: 0.649.
With “GGGUGUAUUGAGAAUCAACTT against 4930429A22Rik” the z-score was inactive: -0.554.
For GCAGACCGAGUGAUCACCUTT against Cul4a, the z-score was inactive: 0.129.
